The record followed here is PMC6282339.

The chains behind the UniProt entries cited, without tags or fusion partners.
UniProt O75563: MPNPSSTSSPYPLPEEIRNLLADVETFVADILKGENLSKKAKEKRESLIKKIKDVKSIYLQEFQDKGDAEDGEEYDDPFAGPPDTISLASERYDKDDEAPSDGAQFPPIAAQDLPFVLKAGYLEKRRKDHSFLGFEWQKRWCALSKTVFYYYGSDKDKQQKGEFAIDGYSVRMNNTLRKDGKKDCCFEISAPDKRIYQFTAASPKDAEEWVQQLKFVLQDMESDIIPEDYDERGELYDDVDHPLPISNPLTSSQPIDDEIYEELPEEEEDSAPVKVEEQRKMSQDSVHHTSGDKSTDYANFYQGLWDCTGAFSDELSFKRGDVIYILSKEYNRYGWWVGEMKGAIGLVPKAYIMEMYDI

These are yes or no findings as the source states them, for the method shown. Binding seen in cells or lysates may run through a third protein. Some results given as binding are weak or reduced against the parent protein; the word gives no strength. For some of these results: Where a sequence is shown, tags or fusion partners need not be part of it.

Assay [1] deals with SKAP2, Flag-tagged or GFP-tagged copy (UniProt O75563). Briefly: co-IP; Flag- and GFP-tagged proteins co-expressed in 293T cells; Triton X-100 lysis; anti-Flag precipitation with protein G-Sepharose, 1-2 h at 4 °C; blotted with anti-Flag or anti-GFP.
Assay [2] concerns the target SKAP1 (SKAP-55), wild type, Flag-tagged or GFP-tagged copy (UniProt Q86WV1). The assay is described as above.
The target is the same in assay [3]. Briefly: co-IP; GFP-SKAP1, Flag-SKAP1 (wild type or A17/F20/L21 mutant) and V5-RapL co-expressed in 293T cells; precipitation with anti-Flag, anti-GFP or anti-V5.
Assay [4] has the same target. Briefly: co-IP; Combinations of Flag- and GFP-tagged SKAP1 expressed in 293T cells; anti-Flag precipitation; blotted with anti-SKAP1.

For the molecule “SKAP2, Flag-tagged or GFP-tagged copy (from UniProt O75563 1-359)”, the binding entry in assay [1] is listed as “binds”.

B1: SKAP1 (SKAP-55), wild type, Flag-tagged or GFP-tagged copy (protein, UniProt Q86WV1 1-359)
chain: MQAAALPEEIRWLLEDAEEFLAEGLRNENLSAVARDHRDHILRGFQQIKARYYWDFQPQGGDIGQDSSDDNHSGTLGLSLTSDAPFLSDYQDEGMEDIVKGAQELDNVIKQGYLEKKSKDHSFFGSEWQKRWCVVSRGLFYYYANEKSKQPKGTFLIKGYGVRMAPHLRRDSKKESCFELTSQDRRSYEFTATSPAEARDWVDQISFLLKDLSSLTIPYEEDEEEEEKEETYDDIDGFDSPSCGSQCRPTILPGSVGIKEPTEEKEEEDIYEVLPDEEHDLEEDESGTRRKGVDYASYYQGLWDCHGDQPDELSFQRGDLIRILSKEYNMYGWWVGELNSLVGIVPKEYLTTAFEVEER
For the molecule B1, the binding entry in assay [2], in assay [3] and in assay [4] was “binds” in each case.
